# In paper PMC7205891:
# By UniProt entry, the sequences of proteins in these tests, tags left out.
# UniProt P51116: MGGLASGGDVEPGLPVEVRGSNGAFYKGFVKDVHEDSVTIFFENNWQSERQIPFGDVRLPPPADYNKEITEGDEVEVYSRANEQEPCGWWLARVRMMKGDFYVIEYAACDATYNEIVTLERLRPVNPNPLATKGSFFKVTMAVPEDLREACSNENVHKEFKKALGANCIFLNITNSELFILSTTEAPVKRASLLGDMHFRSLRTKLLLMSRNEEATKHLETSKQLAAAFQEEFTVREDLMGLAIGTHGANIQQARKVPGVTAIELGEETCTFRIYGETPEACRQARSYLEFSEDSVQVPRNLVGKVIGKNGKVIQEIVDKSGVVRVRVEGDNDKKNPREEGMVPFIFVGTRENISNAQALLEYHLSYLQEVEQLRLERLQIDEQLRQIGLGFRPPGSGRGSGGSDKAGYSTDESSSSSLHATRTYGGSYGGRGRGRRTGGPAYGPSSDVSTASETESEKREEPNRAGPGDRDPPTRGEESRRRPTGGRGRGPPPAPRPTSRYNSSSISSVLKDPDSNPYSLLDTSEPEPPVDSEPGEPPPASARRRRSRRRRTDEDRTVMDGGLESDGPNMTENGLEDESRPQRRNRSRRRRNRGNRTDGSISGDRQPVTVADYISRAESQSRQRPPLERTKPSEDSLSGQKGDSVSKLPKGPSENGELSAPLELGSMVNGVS
# UniProt Q99873: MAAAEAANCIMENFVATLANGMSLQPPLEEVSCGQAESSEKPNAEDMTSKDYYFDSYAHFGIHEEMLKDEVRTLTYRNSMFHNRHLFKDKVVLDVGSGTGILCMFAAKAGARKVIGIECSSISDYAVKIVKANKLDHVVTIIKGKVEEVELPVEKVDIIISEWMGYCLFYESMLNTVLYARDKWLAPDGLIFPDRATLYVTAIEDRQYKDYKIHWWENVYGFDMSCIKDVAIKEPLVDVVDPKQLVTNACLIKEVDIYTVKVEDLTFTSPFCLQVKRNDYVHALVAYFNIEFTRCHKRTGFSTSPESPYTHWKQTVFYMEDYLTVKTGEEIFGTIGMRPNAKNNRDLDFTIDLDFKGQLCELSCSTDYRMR
# No constants are given. Whether binding was seen depends on the method and setting. In cells and extracts the contact can be indirect. Here binding means that the protein was enriched with, or labelled near, the bait; the list need not be complete.
# B1: ras GTPase-activating protein-binding protein 2 (G3BP2), endogenous (protein, UniProt Q9UN86 1-482)
# chain: MVMEKPSPLLVGREFVRQYYTLLNKAPEYLHRFYGRNSSYVHGGVDASGKPQEAVYGQNDIHHKVLSLNFSECHTKIRHVDAHATLSDGVVVQVMGLLSNSGQPERKFMQTFVLAPEGSVPNKFYVHNDMFRYEDEVFGDSEPELDEESEDEVEEEQEERQPSPEPVQENANSGYYEAHPVTNGIEEPLEESSHEPEPEPESETKTEELKPQVEEKNLEELEEKSTTPPPAEPVSLPQEPPKAFSWASVTSKNLPPSGTVSSSGIPPHVKAPVSQPRVEAKPEVQSQPPRVREQRPRERPGFPPRGPRPGRGDMEQNDSDNRRIIRYPDSHQLFVGNLPHDIDENELKEFFMSFGNVVELRINTKGVGGKLPNFGFVVFDDSEPVQRILIAKPIMFRGEVRLNVEEKKTRAARERETRGGGDDRRDIRRNDRGPGGPRGIVGGGMMRDRDGRGPPPRGGMAQKLGSGRGTGQMEGRFTGQRR
# Target: Flag-tagged full-length human UBAP2L, wild type (human) (UniProt Q14157)
# Test: affinity purification with mass spectrometry; HEK293 cells transfected with Flag-UBAP2L or Flag empty plasmid; IP with a Flag antibody, SDS-PAGE, Coomassie blue, bands differing from the Flag control analysed by MS
row,binding,Molecule
1,binds,"fragile X mental retardation syndrome-related protein 2 (FXR2), endogenous (from UniProt P51116 1-673)"
2,binds,"protein arginine methyltransferase PRMT1, endogenous (from UniProt Q99873 1-371) (enzyme)"
3,binds,B1
